No constants are given. Whether binding was seen depends on the method and setting. Some binding calls cover weakened binding; strength is not graded here.
Assays:
[1] = molecular target: GluN1 on cultured rat hippocampal neurons (rat) (UniProt P35439); experiment: immunostaining of cultured rat hippocampal neurons
[2] = molecular target: GluN1 on cultured rat hippocampal neurons (rat) (UniProt P35439); experiment: immunostaining of fixed cultured rat hippocampal neurons
[3] = molecular target: GluN1 on cultured rat hippocampal neurons (rat) (UniProt P35439); experiment: staining of cultured hippocampal neurons treated with MK-801 or AP5
[4] = molecular target: GluN1 in murine brain (cortex and hippocampus sections) (mouse) (UniProt P35438); experiment: immunostaining of floating sections of murine cortex and hippocampus
[5] = molecular target: GluN1 on cultured rat hippocampal neurons (rat) (UniProt P35439); experiment: staining of live rat hippocampal neurons, co-stained with commercial anti-GluN1 and anti-PSD-95

Measured: binding

B1: mAb 5F5 (antibody, V domains shown)
VH: QVQLVESGGGVVRPGGSLRLSCAASGFTFSTYSLHWVRQAPGKGLEWVGVILYDGSKKYYADSVRGRFTISRDNSKSTLNLDMSSLRPDDTAVYYCARDPIAVAPRPSGMVPQGFDYWGQGTLVTVSS
VL: QSVVTQPPSASGTPGQRVTISCSGSSSNIGRNFVFWYRQLPGTAPKVLIYKNIQRPSGVPDRISGSRSGSSASLAISGLRSEDEADYYCASWDDSLSGVVFGGGTKLTVL
binds: all assays above

B2: mAb 2G6 (antibody, V domains shown)
VH: QVQLQESGGGVVQPGRSLRLSCAASGFSFNAFAMHWVRQAPGKGLEWVARISHYGSDDYYADSVKGRFTISRDNSQNTLFLQMNSLKAEDTGVYYCWRGFTLVRGVISRNPINRFSGMDVWGQGTTVTVS
VL: SYELMQPPSVSVSPGQTARITCSGDALPKKYAYWYQQKSGQAPILVIYEDNKRPSGIPERFSGSSSGTMATLTISGAQVEDEADYFCYSTDSSGNHGVFGGGTKLTVL
binds: [1] | [2] | [3]
